Source: article PMC12548422
Results are given in words; binding and its absence hold for the method and conditions named. In cells and extracts the contact can be indirect. Some results given as binding are weak or reduced against the parent protein; the word gives no strength.

The chains behind the UniProt entries cited, without tags or fusion partners.
UniProt Q13263: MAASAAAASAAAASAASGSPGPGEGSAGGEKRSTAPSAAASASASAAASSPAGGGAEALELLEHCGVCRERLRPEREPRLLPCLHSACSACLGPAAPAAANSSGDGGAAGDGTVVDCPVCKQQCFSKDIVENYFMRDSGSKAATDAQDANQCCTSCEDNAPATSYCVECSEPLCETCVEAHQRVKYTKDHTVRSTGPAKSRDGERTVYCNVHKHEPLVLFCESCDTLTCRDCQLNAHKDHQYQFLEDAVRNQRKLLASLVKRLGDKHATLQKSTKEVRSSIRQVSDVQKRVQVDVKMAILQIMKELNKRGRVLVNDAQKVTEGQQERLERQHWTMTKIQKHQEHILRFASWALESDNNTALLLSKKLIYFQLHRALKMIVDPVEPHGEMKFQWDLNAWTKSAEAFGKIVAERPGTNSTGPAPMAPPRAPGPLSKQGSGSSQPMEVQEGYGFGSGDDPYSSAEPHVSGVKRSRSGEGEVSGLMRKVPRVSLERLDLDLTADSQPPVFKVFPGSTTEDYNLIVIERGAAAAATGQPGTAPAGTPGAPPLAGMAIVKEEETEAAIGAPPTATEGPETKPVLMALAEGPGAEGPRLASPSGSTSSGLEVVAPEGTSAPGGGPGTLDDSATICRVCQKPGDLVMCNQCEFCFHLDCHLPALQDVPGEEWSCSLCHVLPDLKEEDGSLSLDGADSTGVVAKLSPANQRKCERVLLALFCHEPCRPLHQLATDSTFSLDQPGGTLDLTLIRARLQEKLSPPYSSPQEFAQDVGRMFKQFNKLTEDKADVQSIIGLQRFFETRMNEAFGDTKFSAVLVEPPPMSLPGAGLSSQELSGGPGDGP
UniProt O14980: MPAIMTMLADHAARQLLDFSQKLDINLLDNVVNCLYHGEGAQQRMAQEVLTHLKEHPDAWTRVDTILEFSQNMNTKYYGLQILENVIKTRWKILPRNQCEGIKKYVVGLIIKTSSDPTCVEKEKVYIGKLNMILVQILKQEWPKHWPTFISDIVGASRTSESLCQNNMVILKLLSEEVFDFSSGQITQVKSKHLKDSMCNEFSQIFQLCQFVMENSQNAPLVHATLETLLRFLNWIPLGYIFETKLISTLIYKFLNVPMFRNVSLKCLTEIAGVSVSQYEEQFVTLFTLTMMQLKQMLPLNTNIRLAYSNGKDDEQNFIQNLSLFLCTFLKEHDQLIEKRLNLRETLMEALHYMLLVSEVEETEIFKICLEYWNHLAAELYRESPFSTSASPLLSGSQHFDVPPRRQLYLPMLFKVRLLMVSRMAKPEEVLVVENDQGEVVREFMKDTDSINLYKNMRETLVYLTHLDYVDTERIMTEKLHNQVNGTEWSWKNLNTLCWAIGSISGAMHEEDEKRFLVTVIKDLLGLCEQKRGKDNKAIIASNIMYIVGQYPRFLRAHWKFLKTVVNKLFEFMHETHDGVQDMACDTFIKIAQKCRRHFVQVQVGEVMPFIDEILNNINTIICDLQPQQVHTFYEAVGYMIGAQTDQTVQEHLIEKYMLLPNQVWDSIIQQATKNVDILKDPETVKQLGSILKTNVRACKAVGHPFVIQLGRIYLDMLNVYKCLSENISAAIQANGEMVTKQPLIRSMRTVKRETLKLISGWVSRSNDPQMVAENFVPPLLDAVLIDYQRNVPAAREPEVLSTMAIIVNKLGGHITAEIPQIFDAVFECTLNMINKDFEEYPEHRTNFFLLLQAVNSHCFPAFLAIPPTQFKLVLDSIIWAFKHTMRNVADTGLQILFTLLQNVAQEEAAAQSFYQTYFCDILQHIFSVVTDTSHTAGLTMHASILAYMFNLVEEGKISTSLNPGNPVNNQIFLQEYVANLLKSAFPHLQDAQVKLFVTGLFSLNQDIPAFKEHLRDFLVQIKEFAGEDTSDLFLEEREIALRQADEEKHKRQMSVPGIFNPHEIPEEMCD

Legend:
[1] = biological target: Flag-TRIM28 (WT), full length (UniProt Q13263); assay: co-IP; HEK-293T transfected with Flag-TRIM28 (WT) or truncation mutants; Co-IP with Flag antibodies; blot for CRM1 (Fig. 4G)
[2] = biological target: Flag-CRM1 expressed in HEK-293T cells (UniProt O14980); assay: co-IP; HEK-293T transfected with Flag-CRM1; Co-IP with Flag antibodies; blot for Flag-CRM1 and TRIM28 (Fig. 4C)

Substance | binding [1] | binding [2]
CRM1 co-precipitated with Flag-TRIM28 in HEK-293T cells (Fig. 4G) (from UniProt O14980 1-1071) | binds | 
endogenous TRIM28 of HEK-293T cells (from UniProt Q13263 1-835) |  | binds
